In the supplement of paper PMC10849652:
Some of the results follow.

The chains behind the UniProt entries cited, without tags or fusion partners. Where a name states a change or a piece, a line headed by the entry shows the natural chain unless it says otherwise.
UniProt Q9H3L0: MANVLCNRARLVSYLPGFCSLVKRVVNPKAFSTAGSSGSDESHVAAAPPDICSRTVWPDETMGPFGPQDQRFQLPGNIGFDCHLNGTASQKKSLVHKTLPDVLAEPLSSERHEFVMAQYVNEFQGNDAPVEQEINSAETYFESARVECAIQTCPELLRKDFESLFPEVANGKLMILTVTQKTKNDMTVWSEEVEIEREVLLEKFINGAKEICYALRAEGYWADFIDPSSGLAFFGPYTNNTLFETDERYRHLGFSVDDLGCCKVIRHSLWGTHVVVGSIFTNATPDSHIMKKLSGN
UniProt P14174: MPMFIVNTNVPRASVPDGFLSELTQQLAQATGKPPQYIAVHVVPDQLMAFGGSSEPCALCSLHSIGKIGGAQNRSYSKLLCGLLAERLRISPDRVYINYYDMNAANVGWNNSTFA
UniProt Q8N344: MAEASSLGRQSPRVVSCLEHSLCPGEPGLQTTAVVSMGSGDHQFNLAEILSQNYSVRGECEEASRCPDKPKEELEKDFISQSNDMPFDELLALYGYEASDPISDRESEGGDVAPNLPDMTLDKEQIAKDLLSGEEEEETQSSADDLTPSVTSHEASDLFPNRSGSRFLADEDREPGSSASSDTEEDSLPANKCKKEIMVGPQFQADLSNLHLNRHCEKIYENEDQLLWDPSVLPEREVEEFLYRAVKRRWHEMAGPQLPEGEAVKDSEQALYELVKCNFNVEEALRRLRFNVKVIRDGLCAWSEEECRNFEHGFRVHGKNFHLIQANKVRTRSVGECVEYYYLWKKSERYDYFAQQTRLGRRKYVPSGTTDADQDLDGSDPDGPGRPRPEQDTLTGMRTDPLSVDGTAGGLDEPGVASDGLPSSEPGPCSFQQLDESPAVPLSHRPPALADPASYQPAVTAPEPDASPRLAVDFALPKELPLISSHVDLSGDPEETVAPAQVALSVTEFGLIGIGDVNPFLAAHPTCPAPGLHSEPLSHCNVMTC
UniProt Q99735: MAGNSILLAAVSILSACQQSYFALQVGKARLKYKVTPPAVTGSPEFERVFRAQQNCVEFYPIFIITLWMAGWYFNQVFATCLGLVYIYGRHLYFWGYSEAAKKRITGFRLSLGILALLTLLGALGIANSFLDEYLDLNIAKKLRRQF
UniProt Q9NZB8: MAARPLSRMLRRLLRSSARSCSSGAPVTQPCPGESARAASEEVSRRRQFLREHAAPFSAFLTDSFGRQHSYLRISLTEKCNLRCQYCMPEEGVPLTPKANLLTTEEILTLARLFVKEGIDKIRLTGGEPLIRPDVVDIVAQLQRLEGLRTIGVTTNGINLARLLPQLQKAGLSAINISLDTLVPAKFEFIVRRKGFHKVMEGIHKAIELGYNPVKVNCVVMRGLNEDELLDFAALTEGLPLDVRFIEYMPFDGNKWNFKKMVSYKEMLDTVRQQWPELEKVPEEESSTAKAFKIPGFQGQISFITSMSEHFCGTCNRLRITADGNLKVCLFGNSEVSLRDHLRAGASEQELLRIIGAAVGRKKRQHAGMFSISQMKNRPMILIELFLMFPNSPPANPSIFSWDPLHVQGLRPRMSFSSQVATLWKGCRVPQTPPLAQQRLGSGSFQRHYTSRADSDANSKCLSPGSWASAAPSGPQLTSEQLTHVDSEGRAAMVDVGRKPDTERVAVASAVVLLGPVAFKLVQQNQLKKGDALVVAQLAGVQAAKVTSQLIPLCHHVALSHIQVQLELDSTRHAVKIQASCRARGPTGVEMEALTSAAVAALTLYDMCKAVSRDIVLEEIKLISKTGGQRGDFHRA
UniProt Q5XKP0: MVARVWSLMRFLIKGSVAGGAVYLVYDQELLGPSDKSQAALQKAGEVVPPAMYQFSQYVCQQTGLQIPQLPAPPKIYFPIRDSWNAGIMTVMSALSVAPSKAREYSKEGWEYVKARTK
UniProt Q9BPX6: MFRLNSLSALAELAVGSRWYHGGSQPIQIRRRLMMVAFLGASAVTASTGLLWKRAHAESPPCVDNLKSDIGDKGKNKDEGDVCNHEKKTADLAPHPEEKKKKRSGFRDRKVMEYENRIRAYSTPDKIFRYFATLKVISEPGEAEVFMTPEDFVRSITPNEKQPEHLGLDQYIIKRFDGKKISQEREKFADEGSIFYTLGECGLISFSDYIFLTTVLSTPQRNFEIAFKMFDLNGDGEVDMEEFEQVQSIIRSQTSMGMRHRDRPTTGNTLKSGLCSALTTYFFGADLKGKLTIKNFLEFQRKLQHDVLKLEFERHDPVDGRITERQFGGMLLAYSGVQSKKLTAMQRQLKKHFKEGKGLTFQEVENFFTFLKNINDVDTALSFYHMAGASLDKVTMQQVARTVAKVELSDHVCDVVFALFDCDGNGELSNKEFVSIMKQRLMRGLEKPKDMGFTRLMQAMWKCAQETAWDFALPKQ
UniProt Q9Y5U8: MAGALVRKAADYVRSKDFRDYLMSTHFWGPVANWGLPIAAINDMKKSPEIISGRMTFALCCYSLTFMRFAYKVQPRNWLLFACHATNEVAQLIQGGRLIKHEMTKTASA
UniProt Q9H000: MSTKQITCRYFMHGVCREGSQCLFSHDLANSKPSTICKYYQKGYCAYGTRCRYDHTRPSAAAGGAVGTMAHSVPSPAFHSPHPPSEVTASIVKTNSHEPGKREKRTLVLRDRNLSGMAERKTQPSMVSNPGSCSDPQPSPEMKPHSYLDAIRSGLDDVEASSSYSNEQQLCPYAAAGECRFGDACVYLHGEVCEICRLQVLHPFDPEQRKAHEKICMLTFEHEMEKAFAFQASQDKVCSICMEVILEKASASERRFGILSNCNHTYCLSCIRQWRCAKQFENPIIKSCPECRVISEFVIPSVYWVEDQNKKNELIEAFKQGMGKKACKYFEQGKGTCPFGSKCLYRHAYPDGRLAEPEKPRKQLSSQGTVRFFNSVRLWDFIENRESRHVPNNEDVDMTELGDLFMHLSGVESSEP
UniProt Q86TA1: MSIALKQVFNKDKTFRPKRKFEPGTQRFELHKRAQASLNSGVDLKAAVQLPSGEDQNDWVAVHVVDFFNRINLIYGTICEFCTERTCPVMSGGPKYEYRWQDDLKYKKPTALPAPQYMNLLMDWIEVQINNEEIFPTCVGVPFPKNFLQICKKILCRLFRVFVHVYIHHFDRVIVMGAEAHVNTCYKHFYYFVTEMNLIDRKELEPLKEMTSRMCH
UniProt Q99549: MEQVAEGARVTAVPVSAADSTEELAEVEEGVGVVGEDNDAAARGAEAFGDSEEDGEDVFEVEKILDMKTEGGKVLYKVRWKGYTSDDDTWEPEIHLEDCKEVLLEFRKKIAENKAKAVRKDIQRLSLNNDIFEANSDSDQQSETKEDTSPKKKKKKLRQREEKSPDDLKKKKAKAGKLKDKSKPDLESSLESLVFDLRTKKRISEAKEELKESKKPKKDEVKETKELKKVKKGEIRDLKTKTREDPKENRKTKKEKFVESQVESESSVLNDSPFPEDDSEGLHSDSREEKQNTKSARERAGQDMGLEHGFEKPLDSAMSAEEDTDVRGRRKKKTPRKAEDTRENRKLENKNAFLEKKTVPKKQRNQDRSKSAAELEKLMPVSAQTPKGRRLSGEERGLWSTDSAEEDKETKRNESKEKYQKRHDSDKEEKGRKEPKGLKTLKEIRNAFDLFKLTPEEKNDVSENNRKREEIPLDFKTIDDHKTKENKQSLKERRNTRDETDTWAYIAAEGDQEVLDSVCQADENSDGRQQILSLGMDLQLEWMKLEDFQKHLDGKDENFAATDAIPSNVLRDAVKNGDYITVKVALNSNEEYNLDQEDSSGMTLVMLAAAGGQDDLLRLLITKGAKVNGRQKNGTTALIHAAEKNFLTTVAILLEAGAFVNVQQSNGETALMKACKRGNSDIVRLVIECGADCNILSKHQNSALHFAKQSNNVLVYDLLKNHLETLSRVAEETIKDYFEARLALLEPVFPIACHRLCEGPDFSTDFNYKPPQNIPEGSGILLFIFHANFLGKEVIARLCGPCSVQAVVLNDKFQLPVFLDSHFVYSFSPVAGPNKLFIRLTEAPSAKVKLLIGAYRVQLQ
UniProt O95396: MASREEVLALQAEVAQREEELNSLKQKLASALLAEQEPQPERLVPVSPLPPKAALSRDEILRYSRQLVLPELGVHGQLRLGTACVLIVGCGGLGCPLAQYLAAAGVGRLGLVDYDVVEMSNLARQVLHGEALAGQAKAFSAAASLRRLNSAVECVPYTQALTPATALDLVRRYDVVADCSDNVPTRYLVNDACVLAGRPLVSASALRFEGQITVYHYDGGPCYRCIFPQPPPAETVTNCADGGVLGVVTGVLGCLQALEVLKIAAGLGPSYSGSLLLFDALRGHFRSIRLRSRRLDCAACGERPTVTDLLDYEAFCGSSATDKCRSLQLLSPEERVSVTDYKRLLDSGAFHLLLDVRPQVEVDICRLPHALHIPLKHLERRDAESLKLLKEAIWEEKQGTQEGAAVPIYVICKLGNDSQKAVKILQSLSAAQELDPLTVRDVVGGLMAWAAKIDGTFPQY
UniProt O75352: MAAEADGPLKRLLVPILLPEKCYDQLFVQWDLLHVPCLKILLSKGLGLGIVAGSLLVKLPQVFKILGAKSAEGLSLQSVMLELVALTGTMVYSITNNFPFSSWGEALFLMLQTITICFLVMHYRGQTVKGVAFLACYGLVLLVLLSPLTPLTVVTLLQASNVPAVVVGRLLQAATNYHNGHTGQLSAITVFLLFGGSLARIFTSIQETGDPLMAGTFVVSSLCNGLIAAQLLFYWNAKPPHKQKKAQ

What was measured:
Test in all cases: log2 fold change, soluble protein after heating vs DMSO (PISA); higher = thermal stabilisation; K562 lysate, 10 uM; active = over 0.2 and 3.5 SD of the protein, either way, in both replicates (recomputed)
alvocidib = compound: CN1CC[C@H](c2c(O)cc(O)c3c(=O)cc(-c4ccccc4Cl)oc23)[C@H](O)C1 [alvocidib]
In short: (§1)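 A 30 min treatment with 10 μM compound was applied to crude K562 extract at 1 mg/mL protein in PBS pH 7.4 with 1 mM MgCl2. Heating for 3 min spanned 48°C-58°C, after which aliquots were pooled, adjusted to 0.5% NP-40 at 4°C and spun at 21,000xg for 90 min. TMTpro 16plex LC-MS/MS of the supernatant, with channel sums equalised, gave values recorded as log-two fold change in thermal stability against solvent controls, from duplicates.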

Tubastatin A = compound: CN1CCc2c(c3ccccc3n2Cc2ccc(C(=O)NO)cc2)C1 [Tubastatin A]
In short: as §1

[1] = compound: CNC(=O)C1=CC=CC=C1NC2=NC(=NC=C2Cl)NC3=C(C=C(C=C3)N4CCOCC4)OC
In short: as §1

defactinib = compound: CNC(=O)c1ccc(Nc2ncc(C(F)(F)F)c(NCc3nccnc3N(C)S(C)(=O)=O)n2)cc1 [defactinib]
In short: as §1

[2] = compound: CNc1nc(-c2ccc3c(N)n[nH]c3c2)cc(N2C[C@@H](C(=O)NC3CCCCC3)CC[C@H]2C)n1
In short: as §1

encorafenib = compound: COC(=O)N[C@@H](C)CNc1nccc(-c2cn(C(C)C)nc2-c2cc(Cl)cc(NS(C)(=O)=O)c2F)n1 [encorafenib]
In short: as §1

[3] = compound: COC(=O)[C@H](CCSC)NC(=O)C1=C(C=C(C=C1)NC[C@H](CS)N)C2=CC=CC=C2
In short: as §1

alisertib = compound: COc1cc(Nc2ncc3c(n2)-c2ccc(Cl)cc2C(c2c(F)cccc2OC)=NC3)ccc1C(=O)O [alisertib]
In short: as §1

[4] = compound: COc1cc2nc(-c3cc(F)ccc3O)nc(N[C@@H]3CNC[C@H]3C(C)(C)O)c2cc1OC
In short: as §1

gefitinib = compound: COc1cc2ncnc(Nc3ccc(F)c(Cl)c3)c2cc1OCCCN1CCOCC1 [gefitinib]
In short: as §1

lapatinib = compound: CS(=O)(=O)CCNCc1ccc(-c2ccc3ncnc(Nc4ccc(OCc5cccc(F)c5)c(Cl)c4)c3c2)o1 [lapatinib]
In short: as §1

pictilisib = compound: CS(=O)(=O)N1CCN(Cc2cc3nc(-c4cccc5[nH]ncc45)nc(N4CCOCC4)c3s2)CC1 [pictilisib]
In short: as §1

crizotinib = compound: C[C@@H](Oc1cc(-c2cnn(C3CCNCC3)c2)cnc1N)c1c(Cl)ccc(F)c1Cl [crizotinib]
In short: as §1

[5] = compound: C[C@H](C1=CC=C(C=C1)C(=O)NC2=C3C=CNC3=NC=C2)N
In short: as §1

duvelisib = compound: C[C@H](Nc1ncnc2nc[nH]c12)c1cc2cccc(Cl)c2c(=O)n1-c1ccccc1 [duvelisib]
In short: as §1

gandotinib = compound: Cc1cc(Nc2cc(CN3CCOCC3)c3nc(C)c(Cc4ccc(Cl)cc4F)n3n2)n[nH]1 [gandotinib]
In short: as §1

tozasertib = compound: Cc1cc(Nc2cc(N3CCN(C)CC3)nc(Sc3ccc(NC(=O)C4CC4)cc3)n2)n[nH]1 [tozasertib]
In short: as §1

doramapimod = compound: Cc1ccc(-n2nc(C(C)(C)C)cc2NC(=O)Nc2ccc(OCCN3CCOCC3)c3ccccc23)cc1 [doramapimod]
In short: as §1

bafetinib = compound: Cc1ccc(NC(=O)c2ccc(CN3CC[C@H](N(C)C)C3)c(C(F)(F)F)c2)cc1Nc1nccc(-c2cncnc2)n1 [bafetinib]
In short: as §1

[6] = compound: Cc1cccc(CC(=O)N2CCc3c2ccc(-c2cn(C)c4ncnc(N)c24)c3F)n1
In short: as §1

Row | Target | log2 fold change (alvocidib) | log2 fold change (Tubastatin A) | log2 fold change [1] | log2 fold change (defactinib) | log2 fold change [2] | log2 fold change (encorafenib) | log2 fold change [3] | log2 fold change (alisertib) | log2 fold change [4] | log2 fold change (gefitinib) | log2 fold change (lapatinib) | log2 fold change (pictilisib) | log2 fold change (crizotinib) | log2 fold change [5] | log2 fold change (duvelisib) | log2 fold change (gandotinib) | log2 fold change (tozasertib) | log2 fold change (doramapimod) | log2 fold change (bafetinib) | log2 fold change [6]
1 | MMADHC (UniProt Q9H3L0) | inactive: 0.034 | inactive: -0.033 | inactive: 0.012 | inactive: 0.021 | inactive: 0.032 | inactive: -0.001 | inactive: 0.006 | inactive: -0.048 | inactive: -0.015 | inactive: -0.041 | inactive: -0.024 | inactive: 0.017 | inactive: 0.012 | inactive: -0.029 | inactive: -0.029 | inactive: -0.026 | inactive: 0.009 | inactive: -0.007 | inactive: -0.049 | inactive: 0.012
2 | MIF (UniProt P14174) | inactive: -0.109 | active: 0.545 | inactive: 0.103 | inactive: -0.05 | inactive: -0.145 | inactive: -0.028 | inactive: -0.013 | inactive: 0.005 | inactive: -0.006 | inactive: 0.068 | inactive: 0.04 | inactive: 0.06 | inactive: -0.022 | active: -0.258 | inactive: 0.022 | inactive: 0.11 | inactive: -0.057 | inactive: 0.008 | inactive: 0.383 | inactive: 0.024
3 | MIER2 (UniProt Q8N344) | inactive: -0.21 | inactive: 0.03 | inactive: 0.126 | inactive: -0.094 | inactive: -0.027 | inactive: 0.102 | inactive: -0.099 | – | – | – | – | inactive: -0.025 | – | inactive: -0.044 | inactive: 0.028 | inactive: 0.021 | inactive: -0.201 | – | inactive: -0.032 | inactive: 0.004
4 | MGST2 (UniProt Q99735) | inactive: -0.162 | inactive: 0.095 | inactive: 0.025 | inactive: 0.058 | inactive: 0.108 | inactive: -0.008 | inactive: 0.031 | inactive: -0.027 | inactive: -0.066 | inactive: 0.033 | inactive: -0.049 | inactive: -0.019 | inactive: -0.022 | inactive: 0 | inactive: 0.017 | inactive: -0.005 | inactive: -0.047 | inactive: 0.071 | inactive: -0.099 | inactive: 0.161
5 | MOCS1 isoform 8 (UniProt Q9NZB8) | inactive: -0.108 | inactive: -0.008 | inactive: 0.002 | inactive: 0.113 | inactive: -0.105 | inactive: 0.039 | inactive: -0.055 | inactive: -0.099 | inactive: 0.003 | active: 0.395 | inactive: -0.022 | inactive: -0.003 | inactive: -0.046 | inactive: -0.078 | inactive: 0 | inactive: 0.012 | inactive: 0.11 | inactive: 0.018 | inactive: -0.032 | inactive: 0.04
6 | MRPL21 (UniProt Q7Z2W9) | inactive: -0.023 | inactive: 0.061 | inactive: -0.032 | inactive: 0.044 | inactive: -0.033 | inactive: -0.001 | inactive: 0.017 | inactive: 0.014 | inactive: 0.009 | inactive: -0.02 | inactive: 0.039 | inactive: 0 | inactive: -0.05 | inactive: -0.08 | inactive: 0 | inactive: 0.008 | inactive: -0.057 | inactive: 0.06 | inactive: -0.033 | inactive: 0.049
7 | MPDZ (UniProt O75970) | inactive: 0.028 | inactive: 0.117 | inactive: 0.236 | inactive: 0.053 | inactive: 0.099 | inactive: -0.091 | inactive: -0.032 | inactive: -0.167 | inactive: -0.114 | inactive: 0.228 | inactive: 0.046 | – | inactive: 0.127 | inactive: 0.099 | inactive: -0.003 | inactive: 0.016 | inactive: 0.118 | inactive: 0.053 | – | inactive: -0.066
8 | MICOS13 (UniProt Q5XKP0) | inactive: 0.048 | inactive: -0.18 | inactive: 0.012 | inactive: 0.081 | inactive: 0.03 | inactive: -0.029 | inactive: 0.18 | inactive: 0.013 | inactive: -0.13 | inactive: 0.025 | inactive: -0.065 | inactive: 0.023 | inactive: -0.002 | inactive: 0.017 | inactive: 0.011 | inactive: -0.082 | inactive: -0.145 | inactive: 0.013 | inactive: -0.129 | inactive: -0.016
9 | MICU1 isoform 3 (UniProt Q9BPX6) | inactive: 0.092 | inactive: -0.065 | inactive: 0 | inactive: 0.026 | inactive: -0.061 | inactive: -0.037 | inactive: -0.05 | inactive: -0.025 | inactive: -0.063 | inactive: 0.023 | inactive: -0.052 | inactive: -0.053 | inactive: -0.107 | active: 0.253 | inactive: -0.007 | active: -0.408 | inactive: 0.049 | inactive: -0.008 | inactive: -0.077 | inactive: -0.209
10 | MPC1 (UniProt Q9Y5U8) | inactive: 0.178 | inactive: 0.055 | inactive: 0 | inactive: 0.05 | inactive: 0.103 | inactive: 0.019 | inactive: 0.071 | – | inactive: -0.006 | – | inactive: 0.032 | inactive: 0.074 | inactive: -0.002 | inactive: 0.244 | inactive: -0.058 | inactive: -0.128 | inactive: 0.042 | inactive: -0.022 | inactive: 0.004 | inactive: -0.26
11 | MKRN2 (UniProt Q9H000) | inactive: 0.075 | inactive: -0.068 | inactive: 0.021 | inactive: -0.037 | inactive: -0.027 | inactive: -0.006 | inactive: -0.021 | inactive: 0.037 | inactive: -0.043 | inactive: 0.001 | inactive: 0.025 | inactive: -0.007 | inactive: -0.006 | inactive: 0.014 | inactive: -0.036 | inactive: -0.071 | inactive: 0.01 | inactive: 0.026 | inactive: -0.103 | inactive: 0.015
12 | MOB3B (UniProt Q86TA1) | inactive: 0.071 | inactive: 0 | inactive: 0.076 | inactive: -0.008 | inactive: 0.062 | inactive: 0.253 | inactive: -0.098 | inactive: -0.027 | inactive: -0.025 | inactive: -0.131 | inactive: -0.062 | inactive: -0.141 | inactive: -0.059 | inactive: 0.161 | inactive: -0.016 | inactive: -0.093 | inactive: 0.173 | inactive: 0.038 | inactive: -0.073 | inactive: 0.03
13 | MRPL1 (UniProt Q9BYD6) | inactive: -0.028 | inactive: -0.049 | inactive: -0.049 | inactive: -0.002 | inactive: 0.012 | inactive: -0.01 | inactive: 0.052 | inactive: -0.009 | inactive: 0.003 | inactive: 0.034 | inactive: 0.001 | inactive: 0.019 | inactive: -0.031 | inactive: -0.042 | inactive: 0.037 | inactive: -0.029 | inactive: 0.016 | inactive: 0.03 | inactive: 0.019 | inactive: 0.045
14 | MPHOSPH8 (UniProt Q99549) | inactive: -0.005 | inactive: -0.228 | inactive: 0.228 | inactive: 0.14 | inactive: 0.012 | inactive: 0.063 | inactive: 0.029 | – | inactive: -0.079 | – | inactive: -0.011 | inactive: -0.287 | inactive: -0.04 | inactive: 0 | inactive: -0.006 | inactive: 0.023 | inactive: -0.038 | inactive: -0.04 | inactive: -0.558 | inactive: 0.04
15 | MOCS3 (UniProt O95396) | inactive: -0.213 | inactive: -0.082 | inactive: 0.111 | inactive: -0.161 | inactive: -0.008 | inactive: 0.056 | inactive: -0.094 | inactive: 0.031 | – | inactive: -0.231 | – | inactive: 0.004 | inactive: -0.127 | inactive: -0.176 | inactive: 0.009 | inactive: 0.227 | inactive: 0.027 | inactive: 0.072 | inactive: -0.054 | inactive: 0.348
16 | MPDU1 (UniProt O75352) | inactive: -0.099 | inactive: -0.011 | inactive: 0.002 | inactive: 0 | inactive: 0.106 | inactive: 0.018 | inactive: -0.017 | inactive: 0.016 | inactive: -0.011 | inactive: 0.018 | inactive: -0.004 | inactive: 0.054 | inactive: -0.076 | inactive: -0.035 | inactive: 0.015 | inactive: 0.071 | inactive: -0.124 | inactive: 0.044 | inactive: 0.002 | inactive: 0.067
17 | MRPL15 (UniProt Q9P015) | inactive: -0.122 | inactive: 0.022 | inactive: -0.014 | inactive: -0.011 | inactive: 0.088 | inactive: 0.053 | inactive: -0.013 | inactive: 0.006 | inactive: -0.014 | inactive: -0.027 | inactive: -0.021 | inactive: 0.036 | inactive: -0.045 | active: -0.421 | inactive: -0.013 | inactive: 0.134 | inactive: 0 | inactive: 0.079 | inactive: -0.063 | inactive: 0.241

As entered above:
Under log2 fold change (defactinib), MRPL21 (UniProt Q7Z2W9) is entered as inactive: 0.044
Under log2 fold change [5], MOB3B (UniProt Q86TA1) is entered as inactive: 0.161
